Consider one molecule from patent US20250074994A1 (Molecular Partners, published 2025).

No constants are given. Whether binding was seen depends on the method and setting. Some entries that bind do so weakly or less than the wild type. Sequences can lack the tags named with a protein.

The target of experiment [1] is T1, biotinylated recombinant human CD70 (extracellular domain, Fc tag) (human) (UniProt P32970).
T1 sequence (chain, chemically biotinylated using 5-fold excess of Biotin): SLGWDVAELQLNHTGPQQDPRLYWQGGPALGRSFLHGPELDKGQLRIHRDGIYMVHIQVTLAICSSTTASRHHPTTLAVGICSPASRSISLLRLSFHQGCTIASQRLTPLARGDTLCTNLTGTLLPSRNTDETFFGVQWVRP
Nature of the experiment: crude cell extract HTRF with 2 nM biotinylated hCD70.

The target in experiment [2] is T1, biotinylated recombinant human CD70 (extracellular domain, Fc tag) (human). Nature of the experiment: crude extract HTRF. For orientation: In TR-FRET formats the signal depends on donor and acceptor labels being close together.

B1: DARPin® protein #7 (designed binder)
chain: MRGSHHHHHHGSDLGAKLLNAATVGQDDEVRILLAAGADVNAKDWSGQTPLHHAAYTGHLEIVEVLLKAGADVNAKDSWGWTPLHLAAYTGHLEIVEVLLKAGADVNAQDKEGSTPADLAAFHGHEDIAEVLQKAA
For the molecule B1, the binding entry in experiment [1] and in experiment [2] was “binds” each time.
